Test results published in PubChem BioAssay AID504834 (National Center for Advancing Translational Sciences (NCATS), 2011).
Screen size: about 320,000 compounds; about 22,000 (6.9%) were called active. Inconclusive results, whose numbers are uncertain, are shown with a selection of clear calls. Calls follow the shape of the dose curve; as a rule, active = well fitted inhibition curve with a large enough effect; inconclusive = small, poorly fitted or top-dose-only effect, or another doubt; inactive = no such curve, though single readings can be large or run the other way. A potency beside an inconclusive call is a rough fit, not a confirmed value.

experiment: Primary qHTS for delayed death inhibitors of the malarial parasite plastid, 96 hour incubation; details: P. falciparum luciferase reporter growth; series mostly up to 28.7 µM; activity change, negative = inhibition: at the top concentration
In short: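 Delayed-death screen, second-generation endpoint: infected erythrocytes, 2% hematocrit, 0.05% parasitemia final; 96 hours at 37 C, 5% CO2; luciferase detection reagent; luminescence decrease equals reduced growth.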
% is scaled to controls: 0 for no effect and ±100 for the full control effect; potency is read from the fitted curve at half-maximal effect.

Row | SMILES | Potency | activity change, negative = inhibition
1 | COC(=O)c1cc2n3ccccc3c(C)c(-c3ccccc3)c-2c1C(=O)OC | active: 9.28 µM | –
2 | Cc1cc(C)c([N+](=O)[O-])cc1-c1ccc(/C=N/c2c(-c3ccco3)nc3ccccn23)o1 | inconclusive: 9.28 µM [inhibitor, single point] | –
3 | COc1ccc(CCn2c(C3CCCCC3)nc3c(c(=O)c4ccccc4n3C)c2=O)cc1 | inconclusive: 1.17 µM [inhibitor, full curve] | –
4 | O=C(Nc1ccccc1-c1ccccc1)c1cccc([N+](=O)[O-])c1 | active: 9.28 µM | –
5 | COCCn1c(-c2ccc(-c3ccccc3Cl)o2)nc2c1c(=O)[nH]c(=O)n2CC(C)C | – | inactive: 33.5%
6 | CCOc1ccc(NC(=O)C2CCN(S(=O)(=O)c3ccc4c(c3)CC(C)N4C(C)=O)CC2)cc1 (stereo not given) | – | inactive: -10.4%
7 | CCOC(=O)c1cccc(NC(=O)C2(S(=O)(=O)c3ccc(C)cc3)CC2)c1 | – | inactive: -27.2%
8 | CSCc1cc(N(C)C)nc(SCc2ccc(Cl)c(Cl)c2)n1 | inconclusive: 18.5 µM [inhibitor, single point] | –
9 | COc1cnc(SCc2ccc(Cl)cc2)nc1Cl | inconclusive: 18.5 µM [inhibitor, single point] | –
10 | FC(F)(F)c1cccc(NC(=S)N(CCCN2CCCC2)Cc2cccn2Cc2ccc(Cl)cc2)c1 | inconclusive: 0.828 µM [inhibitor, partial curve, poor fit] | –
11 | CCCCn1c(N)c(N(CC(C)C)C(=O)CSCC(=O)Nc2cccc(C)c2)c(=O)[nH]c1=O | inconclusive: 14.7 µM [inhibitor, partial curve, poor fit] | –
12 | O=C(Nc1ccc[n+](CC(=O)c2cccc3ccccc23)c1)c1ccccc1 | inconclusive: 18.5 µM [inhibitor, single point] | –
13 | COc1ccccc1S(=O)(=O)Cc1ccc(C(=O)NCC2CCCO2)o1 (stereo not given) | inconclusive: 18.5 µM [inhibitor, single point] | –
14 | Cc1c(C)n(CC(O)CN2CCCCC2)c2ccccc12 (stereo not given) | – | inactive: 217%
15 | CC1(C)CC(=O)C=C(NCCO)C1 | inconclusive: 11.7 µM [inhibitor, partial curve, poor fit] | –
16 | C/[N+]([O-])=C\c1cccc(OCCN2CCN(c3ncc(C(F)(F)F)cc3Cl)CC2)c1 | – | inactive: 5.97%
17 | COc1ccc(-c2nc3n(n2)C(c2ccncc2)C(C(N)=O)=C(C)N3)cc1 (stereo not given) | inconclusive: 0.185 µM [inhibitor, full curve, poor fit] | –
18 | O=C(c1cc(S(=O)(=O)N2CCN(c3ccccc3)CC2)ccc1Cl)N1CCCCCCC1 | inconclusive: 14.7 µM [inhibitor, partial curve, poor fit] | –
19 | O=C(NN=C1CCCCCC1)c1c[nH]c2ccccc12 | – | inactive: -15.7%
20 | Cc1c(N2C(=O)CSC23C(=O)Nc2ccccc23)c(=O)n(-c2ccccc2)n1C (stereo not given) | inconclusive: 14.7 µM [inhibitor, single point] | –
21 | COc1ccc(Cn2c(C)c(C)c(C#N)c2NC(=O)Nc2ccc(Cl)cc2)cc1 | inconclusive: 11.7 µM [inhibitor, partial curve, poor fit] | –
22 | Cc1ccnc2nc(C(=O)OCC(=O)NC3CCCC(C)C3C)nn12 (stereo not given) | – | inactive: -27.1%
23 | COc1ccc(CCN2C(=O)NC(NS(=O)(=O)c3ccc(N)cc3)(C(F)(F)F)C2=O)cc1OC (stereo not given) | – | inactive: 23.9%
24 | O=C(Cn1ccc(NC(=O)OCc2ccccc2)nc1=O)NCc1ccc2c(c1)OCO2 | – | inactive: 0%

Row | SMILES | Potency | activity change, negative = inhibition
25 | CC(CCc1ccccc1)NS(=O)(=O)c1ccccc1Cl (stereo not given) | – | inactive: 2.29%
26 | C=CCn1c(SCC(=O)NC)nnc1C12CC3CC(CC(C3)C1)C2 | active: 11.7 µM | –
27 | COC(=O)COc1cccc(NC(=O)c2cccc(C)c2)c1 | active: 10.4 µM | –
28 | COc1ccc(F)c(CN2CCC(N3CCC(C(=O)N4CCOCC4)CC3)CC2)c1 | – | inactive: 22.5%
29 | CN1CCN(CC(=O)NC23CC4CC(CC(C4)C2)C3)CC1 | inconclusive: 1.85 µM [inhibitor, full curve, poor fit] | –
30 | COC(=O)c1ccccc1C(=O)c1ccc2c(c1)NC(=O)CO2 | – | inactive: 25.9%
31 | Cc1cc(Br)c(NC(=O)c2ccccc2[N+](=O)[O-])cc1C | inconclusive: 6.57 µM [inhibitor, partial curve, poor fit] | –
32 | Cc1onc(-c2ccccc2)c1NC(=O)Nc1ccc(OC(F)F)cc1 | active: 4.65 µM | –
33 | CCOc1ccc(-c2noc(COC)n2)cc1OC | inconclusive: 18.5 µM [inhibitor, single point] | –
34 | COc1ccc(CCC(C)N(C)Cc2ccccc2)cc1 (stereo not given) | inconclusive: 18.5 µM [inhibitor, single point] | –
35 | CN(C)c1ccc(NC(=O)/C=C/c2ccccc2Cl)cc1 | inconclusive: 5.22 µM [inhibitor, partial curve, poor fit] | –
36 | O=C(c1cc(F)ccc1F)C1CCCN(C(=O)c2ccc(F)cc2Cl)C1 (stereo not given) | active: 1.17 µM | –
37 | Cc1cc(NC(=O)CSCC(=O)N(C)Cc2c(F)cccc2Cl)no1 | inconclusive: 4.15 µM [inhibitor, single point] | –
38 | O=S(=O)(NC1CCCCC1N1CCN(c2ccccc2F)CC1)c1ccc(Cl)cc1 (stereo not given) | inconclusive: 9.28 µM [inhibitor, partial curve] | –
39 | CC1CCCN(C(=O)c2cc3c(-c4ccc(Cl)cc4)nn(C)c3s2)C1 (stereo not given) | inconclusive: 5.22 µM [inhibitor, partial curve] | –
40 | Fc1ccc(NC(=S)NCc2cccnc2)cc1 | – | inactive: 10.3%
41 | COCCNC(=O)COc1coc(CN2CCN(Cc3ccccc3)CC2)cc1=O | inconclusive: 16.5 µM [inhibitor, single point] | –
42 | COc1cc(C(=O)NC(=S)N(C)Cc2ccccc2)cc(OC)c1OC | inconclusive: 18.5 µM [inhibitor, single point] | –
43 | CCc1cc(SC#N)cc(C)c1N | active: 3.29 µM | –
44 | CN(C(=O)CN1CCN(c2cnn(-c3ccccc3)c(=O)c2Cl)CC1)C1CCS(=O)(=O)C1 (stereo not given) | inconclusive: 9.28 µM [inhibitor, partial curve, poor fit] | –
45 | Cc1ccc(-c2c[n+](CC(=O)Nc3nc(-c4ccc(F)cc4)cs3)c3n2CCC3)cc1 | active: 3.7 µM | –
46 | COC(=O)CSc1cc(C)nc(NC(C)=O)n1 | inconclusive: 0.117 µM [inhibitor, full curve, poor fit] | –
47 | Cc1ccc2c(CC(=O)Nc3cccc(S(=O)(=O)N4CCOCC4)c3)coc2c1 | inconclusive: 0.262 µM [inhibitor, full curve, poor fit] | –
48 | COc1cc(C(c2c(NC(=O)c3ccco3)sc(C)c2C)N2CCOCC2)cc(OC)c1OC (stereo not given) | active: 3.7 µM | –

Shown as tab-separated lines: 15 of the compounds above.
Row	SMILES	Potency	activity change, negative = inhibition
10	FC(F)(F)c1cccc(NC(=S)N(CCCN2CCCC2)Cc2cccn2Cc2ccc(Cl)cc2)c1	inconclusive: 0.828 µM [inhibitor, partial curve, poor fit]	–
14	Cc1c(C)n(CC(O)CN2CCCCC2)c2ccccc12 (stereo not given)	–	inactive: 217%
20	Cc1c(N2C(=O)CSC23C(=O)Nc2ccccc23)c(=O)n(-c2ccccc2)n1C (stereo not given)	inconclusive: 14.7 µM [inhibitor, single point]	–
25	CC(CCc1ccccc1)NS(=O)(=O)c1ccccc1Cl (stereo not given)	–	inactive: 2.29%
26	C=CCn1c(SCC(=O)NC)nnc1C12CC3CC(CC(C3)C1)C2	active: 11.7 µM	–
28	COc1ccc(F)c(CN2CCC(N3CCC(C(=O)N4CCOCC4)CC3)CC2)c1	–	inactive: 22.5%
30	COC(=O)c1ccccc1C(=O)c1ccc2c(c1)NC(=O)CO2	–	inactive: 25.9%
31	Cc1cc(Br)c(NC(=O)c2ccccc2[N+](=O)[O-])cc1C	inconclusive: 6.57 µM [inhibitor, partial curve, poor fit]	–
34	COc1ccc(CCC(C)N(C)Cc2ccccc2)cc1 (stereo not given)	inconclusive: 18.5 µM [inhibitor, single point]	–
36	O=C(c1cc(F)ccc1F)C1CCCN(C(=O)c2ccc(F)cc2Cl)C1 (stereo not given)	active: 1.17 µM	–
41	COCCNC(=O)COc1coc(CN2CCN(Cc3ccccc3)CC2)cc1=O	inconclusive: 16.5 µM [inhibitor, single point]	–
42	COc1cc(C(=O)NC(=S)N(C)Cc2ccccc2)cc(OC)c1OC	inconclusive: 18.5 µM [inhibitor, single point]	–
43	CCc1cc(SC#N)cc(C)c1N	active: 3.29 µM	–
44	CN(C(=O)CN1CCN(c2cnn(-c3ccccc3)c(=O)c2Cl)CC1)C1CCS(=O)(=O)C1 (stereo not given)	inconclusive: 9.28 µM [inhibitor, partial curve, poor fit]	–
45	Cc1ccc(-c2c[n+](CC(=O)Nc3nc(-c4ccc(F)cc4)cs3)c3n2CCC3)cc1	active: 3.7 µM	–

(further entries)

Row | SMILES | Potency | activity change, negative = inhibition
49 | C/C(=N/NC(=O)c1cccs1)c1ccc(NC(=O)COc2ccc(Cl)cc2)cc1 | – | inactive: 2.21% [at 5.75 µM]
50 | Cc1nc2ncnn2c(N2CCN(C(c3ccccc3)c3ccccc3)CC2)c1C | active: 0.37 µM | –
51 | CCNC(=S)NNC(=O)c1ccccn1 | inconclusive: 14.7 µM [inhibitor, single point] | –
52 | CCCCCCOc1ccc(N2C(=O)CC(S/C(N)=N/N=C(\C)c3cccs3)C2=O)cc1 (stereo not given) | inconclusive: 6.57 µM [inhibitor, partial curve, poor fit] | –
53 | CCCCNC(=O)N1CCN(c2ccnc3cc(Cl)ccc23)CC1 | active: 3.7 µM | –
54 | CC1CCCC(NC(=O)CCC(=O)c2ccc(F)cc2)C1C (stereo not given) | inconclusive: 20.8 µM [inhibitor, partial curve, poor fit] | –
55 | CCOC(=O)c1nnn(CC(=O)N2N=C(c3ccc(Cl)cc3)CC2c2ccc(OC)cc2)c1C(=O)OCC (stereo not given) | inconclusive: 8.28 µM [inhibitor, partial curve, poor fit] | –
56 | Cc1cc(C)cc(C(=O)NC(=S)Nc2ccc3c(c2)OCCO3)c1 | active: 0.928 µM | –
57 | Cc1ccc(-c2csc(Cc3nc(-c4ccc5c(c4)CCC(=O)N5)cs3)n2)cc1 | – | inactive: -4.41%
58 | CC(C)CNC(=O)c1cccc(NC(=O)CCc2ccccc2)c1 | – | inactive: -9.41%
59 | Cc1ccc(C(=O)Nc2nccs2)cc1S(=O)(=O)N1CCCCC1 | inconclusive: 13.1 µM [inhibitor, single point] | –
60 | COc1ccc(C)cc1S(=O)(=O)n1c([N+](=O)[O-])cnc1C | inconclusive: 16.5 µM [inhibitor, single point] | –
61 | Cc1cc(=O)[nH]c(N/N=C/c2ccc([N+](=O)[O-])cc2)n1 | inconclusive: 9.28 µM [inhibitor, single point] | –
62 | CCOc1ccc(C(=O)/C=C/c2ccc(OC)c(OC)c2)cc1 | inconclusive: 16.5 µM [inhibitor, single point] | –
63 | CCC1CN(C(=O)N2CCC(C(=O)NCc3ccc(C)o3)CC2)c2ccccc2O1 (stereo not given) | active: 9.28 µM | –
64 | CCn1nc(NS(=O)(=O)c2ccc(NC(C)=O)cc2)c2cc3ccc(C)cc3nc21 | inconclusive: 18.5 µM [inhibitor, single point] | –
65 | O=C(N/N=C/c1ccoc1)c1ccc(Cl)cc1 | inconclusive: 10.4 µM [inhibitor, partial curve, poor fit] | –
66 | C=CCn1c(SCC(=O)NCC2CCCO2)nc2scc(-c3ccc(OC)cc3)c2c1=O (stereo not given) | active: 5.22 µM | –
67 | Cc1csc(N/N=C/c2ccc([N+](=O)[O-])cc2)n1 | inconclusive: 9.28 µM [inhibitor, partial curve, poor fit] | –
68 | Cc1ccsc1C1C2=C(CC(C)(C)CC2=O)Nc2ncnn21 (stereo not given) | inconclusive: 0.465 µM [inhibitor, partial curve, poor fit] | –
69 | NC1=NC(=O)C2(COC(c3ccccc3Cl)OC2)S1 (stereo not given) | inconclusive: 11.7 µM [inhibitor, single point] | –
70 | COc1ccccc1-c1cc(C(F)(F)F)n2ncc(C(=O)N3CCc4ccccc4C3)c2n1 | inconclusive: 13.1 µM [inhibitor, partial curve] | –
